The values below come from ChEMBL document CHEMBL4732199, “Potent and orally bioavailable CDK8 inhibitors: Design, synthesis, structure-activity relationship analysis and biological evaluation” (Eur J Med Chem, 2021).

Chains of the proteins cited; added tags and fusions are not shown. Lines headed by an entry give the natural chain unless they say otherwise; changes in a name come on top.
UniProt P33261, whole entry: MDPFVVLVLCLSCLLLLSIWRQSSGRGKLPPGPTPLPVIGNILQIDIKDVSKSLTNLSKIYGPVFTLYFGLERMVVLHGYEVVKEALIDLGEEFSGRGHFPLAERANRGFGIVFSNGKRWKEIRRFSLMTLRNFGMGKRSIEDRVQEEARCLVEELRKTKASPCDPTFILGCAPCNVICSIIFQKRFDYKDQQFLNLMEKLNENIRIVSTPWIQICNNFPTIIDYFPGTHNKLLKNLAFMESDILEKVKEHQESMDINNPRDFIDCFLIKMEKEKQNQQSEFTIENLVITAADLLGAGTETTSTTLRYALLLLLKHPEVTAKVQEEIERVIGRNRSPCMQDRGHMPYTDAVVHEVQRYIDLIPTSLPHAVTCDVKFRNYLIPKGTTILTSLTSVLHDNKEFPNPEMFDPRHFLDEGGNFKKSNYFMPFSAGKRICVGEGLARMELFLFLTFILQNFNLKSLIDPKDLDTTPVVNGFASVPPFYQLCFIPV
UniProt P10635, whole entry: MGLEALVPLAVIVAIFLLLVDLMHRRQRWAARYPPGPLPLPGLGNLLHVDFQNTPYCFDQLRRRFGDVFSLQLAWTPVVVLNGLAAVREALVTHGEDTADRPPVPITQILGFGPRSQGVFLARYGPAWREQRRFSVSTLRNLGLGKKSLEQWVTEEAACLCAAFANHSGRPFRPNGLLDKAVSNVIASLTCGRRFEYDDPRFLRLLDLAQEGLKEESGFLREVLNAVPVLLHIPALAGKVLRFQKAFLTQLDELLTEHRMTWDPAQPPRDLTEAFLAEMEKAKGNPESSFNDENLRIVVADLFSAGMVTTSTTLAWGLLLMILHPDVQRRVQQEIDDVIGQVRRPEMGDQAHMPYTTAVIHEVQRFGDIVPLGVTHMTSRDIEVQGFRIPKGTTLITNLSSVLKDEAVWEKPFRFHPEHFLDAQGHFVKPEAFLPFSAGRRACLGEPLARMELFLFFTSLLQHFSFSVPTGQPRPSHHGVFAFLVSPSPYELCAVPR
UniProt P11712, whole entry: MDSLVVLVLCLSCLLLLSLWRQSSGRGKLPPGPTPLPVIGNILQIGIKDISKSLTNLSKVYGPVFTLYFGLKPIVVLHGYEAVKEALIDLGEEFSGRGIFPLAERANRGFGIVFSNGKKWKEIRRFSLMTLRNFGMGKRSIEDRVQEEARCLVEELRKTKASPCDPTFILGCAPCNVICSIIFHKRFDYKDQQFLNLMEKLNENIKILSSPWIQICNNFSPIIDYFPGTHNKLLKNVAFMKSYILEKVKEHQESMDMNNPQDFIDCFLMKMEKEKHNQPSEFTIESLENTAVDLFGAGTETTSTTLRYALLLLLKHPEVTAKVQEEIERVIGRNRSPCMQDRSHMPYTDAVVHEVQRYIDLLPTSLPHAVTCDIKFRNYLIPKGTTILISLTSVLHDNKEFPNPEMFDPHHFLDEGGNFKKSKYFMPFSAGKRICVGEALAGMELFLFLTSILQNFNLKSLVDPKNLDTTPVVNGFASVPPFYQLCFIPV
UniProt Q12809: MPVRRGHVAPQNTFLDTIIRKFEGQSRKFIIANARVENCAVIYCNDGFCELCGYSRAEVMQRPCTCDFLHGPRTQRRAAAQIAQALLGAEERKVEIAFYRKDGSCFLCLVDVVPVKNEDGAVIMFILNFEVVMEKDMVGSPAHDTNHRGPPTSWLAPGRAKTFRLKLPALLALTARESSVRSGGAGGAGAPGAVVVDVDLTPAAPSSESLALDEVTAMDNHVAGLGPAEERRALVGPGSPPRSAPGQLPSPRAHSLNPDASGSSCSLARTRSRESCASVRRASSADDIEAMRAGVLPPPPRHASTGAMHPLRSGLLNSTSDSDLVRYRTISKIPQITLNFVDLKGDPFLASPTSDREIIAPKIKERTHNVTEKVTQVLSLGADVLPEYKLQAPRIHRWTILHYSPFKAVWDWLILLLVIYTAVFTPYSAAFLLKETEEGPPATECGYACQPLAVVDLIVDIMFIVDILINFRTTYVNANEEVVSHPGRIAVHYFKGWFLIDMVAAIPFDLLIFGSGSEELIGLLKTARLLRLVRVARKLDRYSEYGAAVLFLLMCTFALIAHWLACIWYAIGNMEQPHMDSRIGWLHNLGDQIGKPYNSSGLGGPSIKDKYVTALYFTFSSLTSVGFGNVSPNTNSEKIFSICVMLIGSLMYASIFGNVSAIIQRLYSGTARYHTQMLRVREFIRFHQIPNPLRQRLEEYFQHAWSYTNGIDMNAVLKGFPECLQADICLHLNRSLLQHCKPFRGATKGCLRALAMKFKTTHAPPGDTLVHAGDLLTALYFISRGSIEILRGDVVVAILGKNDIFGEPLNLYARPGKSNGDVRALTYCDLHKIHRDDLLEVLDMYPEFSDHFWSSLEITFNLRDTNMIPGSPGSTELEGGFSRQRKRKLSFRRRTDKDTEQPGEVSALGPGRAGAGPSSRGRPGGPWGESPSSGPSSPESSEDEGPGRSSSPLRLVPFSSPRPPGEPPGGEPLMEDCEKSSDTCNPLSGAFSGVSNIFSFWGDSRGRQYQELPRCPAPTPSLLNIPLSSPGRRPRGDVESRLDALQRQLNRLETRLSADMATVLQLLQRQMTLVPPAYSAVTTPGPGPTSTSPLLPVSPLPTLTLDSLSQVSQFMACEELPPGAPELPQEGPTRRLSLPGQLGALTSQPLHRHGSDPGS

Molecules are shown by their SMILES. Values after ≈ are worked out from the molar mass of the structure shown. Some results are limits rather than exact numbers.

A short description of data set [1]: physchem. The conditions noted are these: buffer.
A short description of data set [2]: in vitro. The note with it: human, Caco-2.
Data set [3] addresses Cytochrome P450 2C19 (Homo sapiens, UniProt P33261).
Data set [4] in a line: physchem. The conditions noted are these: octanol/water, pH 7.4.
Data set [5] concerns the target Cytochrome P450 2D6 (Homo sapiens, UniProt P10635).
Data set [6] in a line: in vitro. The conditions noted are these: human, Caco-2. This is another data set of the same source.
In data set [7] the target is Cytochrome P450 2C9 (Homo sapiens, UniProt P11712).
Data set [8] has as its target Voltage-gated inwardly rectifying potassium channel KCNH2 (Homo sapiens, UniProt Q12809). The experiment in a line: Inhibition of human ERG expressed in CHO cells.

In data set [1], `O=C1NCCC12CCN(c1c(Cl)cncc1-c1cc3ccccc3o1)CC2` came in with a kinetic solubility of 10 µM (≈ 3.82 µg/mL). Besides, the Papp A→B at 2 h, 10 µM in data set [2] amounted to 22.9 ×10⁻⁶ cm/s. Besides, the IC50 in data set [3], in data set [5] and in data set [7] was above 25 µM each time. The molecule further had a logD in data set [4] of 4.21. This molecule yielded a Papp B→A at 2 h, 10 µM in data set [6] of 23.4 ×10⁻⁶ cm/s.
In data set [1], `O=C1NCCC12CCN(c1c(Cl)cncc1-c1cc3ccccc3s1)CC2` came in with a solubility (kinetic) below 20 µM. This molecule also came in with a Papp A→B at 2 h, 10 µM in data set [2] of 20.4 ×10⁻⁶ cm/s. Moreover, the IC50 in data set [3] was above 25 µM; in data set [5], above 25 µM; in data set [8] it was 14.7 µM; in data set [7], above 25 µM. For the same molecule, the log distribution coefficient (logD) in data set [4] is above 4. The molecule also displayed a Papp B→A at 2 h, 10 µM in data set [6] of 19.5 ×10⁻⁶ cm/s.
